Patent US20230174595A1 (UNIVERSITY OF LOUISVILLE RESEARCH FOUNDATION, published 2023)

How the values were obtained:
[1] = molecular target: recombinant His-tagged HIV-1 gp120 SF162 (Clade B) (HIV-1 strain SF162, UniProt P19550 32-502)
[2] = molecular target: recombinant His-tagged HIV-1 gp120 ZM53M.PB12 (Clade C) (HIV-1 strain ZM53M.PB12)

B1: actinohivin (AH), wild type (other)
chain: ASVTIRNAQTGRLLDSNYNGNVYTLPANGGNYQRWTGPGDGTVRNAQTGRCLDSNYDGAVYTLPCNGGSYQKWLFYSNGYIQNVETGRVLDSNYNGNVYTLPANGGNYQKWYTG
Kd [1]: 29.1 nM
Kd [2]: 35.7 nM
